Measurements taken from article PMC8664928.
These are yes or no findings as the source states them, for the method shown. Binding seen in cells or lysates may run through a third protein. Some binding calls cover weakened binding; strength is not graded here.

Amino acid sequences for entries named in this document (tags omitted). A change or cut given only in a name is not applied to a line headed by its entry. Chains listed by the source or under a name are the forms on record and can include a tag or linker.
UniProt P21817: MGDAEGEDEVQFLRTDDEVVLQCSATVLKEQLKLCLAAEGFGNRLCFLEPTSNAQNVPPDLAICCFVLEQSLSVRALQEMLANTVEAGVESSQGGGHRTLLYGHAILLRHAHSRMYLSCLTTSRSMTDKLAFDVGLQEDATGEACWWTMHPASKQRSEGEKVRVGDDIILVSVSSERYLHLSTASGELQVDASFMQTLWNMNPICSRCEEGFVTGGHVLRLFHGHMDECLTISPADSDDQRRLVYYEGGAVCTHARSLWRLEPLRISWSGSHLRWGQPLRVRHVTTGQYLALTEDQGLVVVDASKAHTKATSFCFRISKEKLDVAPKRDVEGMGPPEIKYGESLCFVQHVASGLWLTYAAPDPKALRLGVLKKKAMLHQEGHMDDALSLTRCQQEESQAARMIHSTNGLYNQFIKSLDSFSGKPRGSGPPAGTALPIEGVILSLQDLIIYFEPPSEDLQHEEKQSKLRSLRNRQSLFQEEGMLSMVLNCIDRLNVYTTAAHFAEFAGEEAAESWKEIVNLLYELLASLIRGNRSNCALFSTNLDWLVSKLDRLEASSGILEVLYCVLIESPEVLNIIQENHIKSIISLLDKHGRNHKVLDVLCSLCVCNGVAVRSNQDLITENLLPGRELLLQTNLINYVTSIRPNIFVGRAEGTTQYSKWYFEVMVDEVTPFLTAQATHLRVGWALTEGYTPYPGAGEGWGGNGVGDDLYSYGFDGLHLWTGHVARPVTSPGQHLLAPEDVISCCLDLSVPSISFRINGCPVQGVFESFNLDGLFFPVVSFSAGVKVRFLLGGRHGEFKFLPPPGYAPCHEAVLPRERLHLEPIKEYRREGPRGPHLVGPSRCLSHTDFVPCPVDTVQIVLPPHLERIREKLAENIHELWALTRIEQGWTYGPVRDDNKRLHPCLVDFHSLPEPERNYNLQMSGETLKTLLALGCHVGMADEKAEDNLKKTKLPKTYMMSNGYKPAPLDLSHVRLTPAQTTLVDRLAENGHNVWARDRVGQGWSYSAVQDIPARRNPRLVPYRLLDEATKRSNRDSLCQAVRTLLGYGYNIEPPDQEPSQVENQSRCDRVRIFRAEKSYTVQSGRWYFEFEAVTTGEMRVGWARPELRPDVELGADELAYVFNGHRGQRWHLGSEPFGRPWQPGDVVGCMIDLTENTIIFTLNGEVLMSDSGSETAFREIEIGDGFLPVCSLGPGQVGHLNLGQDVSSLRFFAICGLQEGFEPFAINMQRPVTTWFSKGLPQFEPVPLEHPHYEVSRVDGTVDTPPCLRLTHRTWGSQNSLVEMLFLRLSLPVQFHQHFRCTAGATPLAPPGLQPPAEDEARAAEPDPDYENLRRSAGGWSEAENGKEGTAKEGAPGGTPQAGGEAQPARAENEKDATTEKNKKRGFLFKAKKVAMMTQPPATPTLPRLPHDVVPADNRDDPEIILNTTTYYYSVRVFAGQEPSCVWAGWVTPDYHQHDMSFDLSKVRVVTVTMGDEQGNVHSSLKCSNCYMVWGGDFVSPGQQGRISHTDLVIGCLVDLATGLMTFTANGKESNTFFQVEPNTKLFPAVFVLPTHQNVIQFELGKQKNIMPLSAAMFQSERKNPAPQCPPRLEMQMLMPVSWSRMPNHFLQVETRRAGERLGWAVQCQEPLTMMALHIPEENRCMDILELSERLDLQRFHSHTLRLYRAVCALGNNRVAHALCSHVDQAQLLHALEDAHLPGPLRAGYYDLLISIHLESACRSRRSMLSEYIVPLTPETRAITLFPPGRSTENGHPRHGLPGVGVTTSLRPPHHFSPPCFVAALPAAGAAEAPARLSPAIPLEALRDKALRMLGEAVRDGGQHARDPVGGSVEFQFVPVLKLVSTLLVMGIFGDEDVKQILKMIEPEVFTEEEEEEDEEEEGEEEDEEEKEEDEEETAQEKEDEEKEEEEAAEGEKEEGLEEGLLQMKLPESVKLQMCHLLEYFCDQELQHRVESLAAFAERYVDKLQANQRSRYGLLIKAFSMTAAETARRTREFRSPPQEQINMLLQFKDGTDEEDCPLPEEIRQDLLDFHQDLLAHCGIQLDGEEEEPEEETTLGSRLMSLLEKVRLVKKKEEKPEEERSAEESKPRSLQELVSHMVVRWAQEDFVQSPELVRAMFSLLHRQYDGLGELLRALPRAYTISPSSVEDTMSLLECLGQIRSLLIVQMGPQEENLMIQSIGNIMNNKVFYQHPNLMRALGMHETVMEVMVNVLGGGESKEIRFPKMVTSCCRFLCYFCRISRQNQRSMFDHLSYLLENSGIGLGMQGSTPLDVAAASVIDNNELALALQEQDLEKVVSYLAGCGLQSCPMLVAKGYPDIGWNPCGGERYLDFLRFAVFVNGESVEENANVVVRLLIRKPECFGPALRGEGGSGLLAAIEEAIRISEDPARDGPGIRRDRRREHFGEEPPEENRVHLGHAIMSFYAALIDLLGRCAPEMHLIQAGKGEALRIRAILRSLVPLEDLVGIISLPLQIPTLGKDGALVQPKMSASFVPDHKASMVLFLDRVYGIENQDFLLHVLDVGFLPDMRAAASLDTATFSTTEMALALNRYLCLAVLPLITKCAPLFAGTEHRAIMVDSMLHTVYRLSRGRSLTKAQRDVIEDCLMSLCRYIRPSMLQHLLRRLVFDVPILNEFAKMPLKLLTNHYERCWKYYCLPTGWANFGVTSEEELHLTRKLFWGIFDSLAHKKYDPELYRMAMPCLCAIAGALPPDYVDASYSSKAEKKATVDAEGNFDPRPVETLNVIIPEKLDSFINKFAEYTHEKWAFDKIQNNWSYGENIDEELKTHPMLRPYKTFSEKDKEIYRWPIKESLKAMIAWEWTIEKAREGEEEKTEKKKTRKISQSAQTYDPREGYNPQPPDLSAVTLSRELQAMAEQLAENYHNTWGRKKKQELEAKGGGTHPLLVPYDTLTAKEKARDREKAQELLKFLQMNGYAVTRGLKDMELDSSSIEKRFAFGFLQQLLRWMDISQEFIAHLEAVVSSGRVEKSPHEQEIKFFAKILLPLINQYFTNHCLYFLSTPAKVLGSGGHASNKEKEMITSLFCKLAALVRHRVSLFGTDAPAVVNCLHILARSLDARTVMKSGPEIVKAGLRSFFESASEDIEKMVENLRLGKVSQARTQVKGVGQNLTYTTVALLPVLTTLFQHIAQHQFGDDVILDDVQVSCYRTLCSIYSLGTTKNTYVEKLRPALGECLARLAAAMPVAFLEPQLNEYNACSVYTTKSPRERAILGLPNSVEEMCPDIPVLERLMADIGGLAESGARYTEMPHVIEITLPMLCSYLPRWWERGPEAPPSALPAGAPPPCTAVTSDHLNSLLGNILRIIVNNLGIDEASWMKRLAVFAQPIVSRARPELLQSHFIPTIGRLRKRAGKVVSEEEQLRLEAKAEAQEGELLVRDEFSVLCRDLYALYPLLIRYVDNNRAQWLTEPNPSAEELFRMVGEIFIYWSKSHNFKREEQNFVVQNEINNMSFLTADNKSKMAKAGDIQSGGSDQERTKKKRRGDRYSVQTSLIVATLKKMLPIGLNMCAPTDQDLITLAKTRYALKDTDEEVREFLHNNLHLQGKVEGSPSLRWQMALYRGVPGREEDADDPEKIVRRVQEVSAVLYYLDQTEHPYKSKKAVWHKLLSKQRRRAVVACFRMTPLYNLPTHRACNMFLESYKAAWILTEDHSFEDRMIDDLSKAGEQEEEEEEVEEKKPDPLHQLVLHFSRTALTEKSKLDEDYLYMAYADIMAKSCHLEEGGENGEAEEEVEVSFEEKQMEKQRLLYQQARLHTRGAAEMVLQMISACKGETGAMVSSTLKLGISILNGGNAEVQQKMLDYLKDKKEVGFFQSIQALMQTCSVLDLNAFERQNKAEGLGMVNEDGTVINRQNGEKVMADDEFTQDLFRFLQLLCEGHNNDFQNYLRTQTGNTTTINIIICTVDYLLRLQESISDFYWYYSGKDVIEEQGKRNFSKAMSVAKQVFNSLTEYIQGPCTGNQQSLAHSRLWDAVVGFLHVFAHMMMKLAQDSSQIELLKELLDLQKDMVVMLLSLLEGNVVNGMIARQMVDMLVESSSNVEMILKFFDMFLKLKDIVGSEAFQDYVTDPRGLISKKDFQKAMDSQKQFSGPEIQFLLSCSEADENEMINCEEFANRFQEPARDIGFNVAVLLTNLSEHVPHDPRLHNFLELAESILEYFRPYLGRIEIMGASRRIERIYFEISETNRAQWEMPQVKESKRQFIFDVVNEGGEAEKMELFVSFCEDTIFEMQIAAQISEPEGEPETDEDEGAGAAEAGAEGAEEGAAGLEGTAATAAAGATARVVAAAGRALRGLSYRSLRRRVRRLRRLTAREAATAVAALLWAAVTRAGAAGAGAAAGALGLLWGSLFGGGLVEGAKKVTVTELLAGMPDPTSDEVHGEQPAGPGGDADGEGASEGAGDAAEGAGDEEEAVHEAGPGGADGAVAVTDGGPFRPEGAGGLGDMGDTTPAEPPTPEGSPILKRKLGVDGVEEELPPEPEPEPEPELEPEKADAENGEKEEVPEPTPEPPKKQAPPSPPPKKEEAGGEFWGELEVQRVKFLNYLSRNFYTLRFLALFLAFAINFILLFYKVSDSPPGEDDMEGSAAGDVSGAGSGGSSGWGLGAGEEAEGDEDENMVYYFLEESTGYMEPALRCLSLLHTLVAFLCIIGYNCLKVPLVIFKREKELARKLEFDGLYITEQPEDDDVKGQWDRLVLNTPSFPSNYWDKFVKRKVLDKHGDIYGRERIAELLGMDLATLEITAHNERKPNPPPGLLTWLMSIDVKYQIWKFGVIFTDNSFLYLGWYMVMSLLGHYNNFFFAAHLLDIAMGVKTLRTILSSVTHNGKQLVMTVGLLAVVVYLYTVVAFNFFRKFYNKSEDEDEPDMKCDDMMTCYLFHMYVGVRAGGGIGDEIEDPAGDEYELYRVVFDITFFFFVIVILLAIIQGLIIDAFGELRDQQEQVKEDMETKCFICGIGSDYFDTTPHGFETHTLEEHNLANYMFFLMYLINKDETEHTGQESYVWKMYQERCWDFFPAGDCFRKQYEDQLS
UniProt P26883: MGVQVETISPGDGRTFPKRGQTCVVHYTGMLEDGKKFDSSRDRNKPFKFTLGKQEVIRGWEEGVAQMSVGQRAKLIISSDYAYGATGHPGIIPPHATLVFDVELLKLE
sarco-endoplasmic Ca2+-ATPase (SERCA), human skeletal muscle (P16615-2, form named): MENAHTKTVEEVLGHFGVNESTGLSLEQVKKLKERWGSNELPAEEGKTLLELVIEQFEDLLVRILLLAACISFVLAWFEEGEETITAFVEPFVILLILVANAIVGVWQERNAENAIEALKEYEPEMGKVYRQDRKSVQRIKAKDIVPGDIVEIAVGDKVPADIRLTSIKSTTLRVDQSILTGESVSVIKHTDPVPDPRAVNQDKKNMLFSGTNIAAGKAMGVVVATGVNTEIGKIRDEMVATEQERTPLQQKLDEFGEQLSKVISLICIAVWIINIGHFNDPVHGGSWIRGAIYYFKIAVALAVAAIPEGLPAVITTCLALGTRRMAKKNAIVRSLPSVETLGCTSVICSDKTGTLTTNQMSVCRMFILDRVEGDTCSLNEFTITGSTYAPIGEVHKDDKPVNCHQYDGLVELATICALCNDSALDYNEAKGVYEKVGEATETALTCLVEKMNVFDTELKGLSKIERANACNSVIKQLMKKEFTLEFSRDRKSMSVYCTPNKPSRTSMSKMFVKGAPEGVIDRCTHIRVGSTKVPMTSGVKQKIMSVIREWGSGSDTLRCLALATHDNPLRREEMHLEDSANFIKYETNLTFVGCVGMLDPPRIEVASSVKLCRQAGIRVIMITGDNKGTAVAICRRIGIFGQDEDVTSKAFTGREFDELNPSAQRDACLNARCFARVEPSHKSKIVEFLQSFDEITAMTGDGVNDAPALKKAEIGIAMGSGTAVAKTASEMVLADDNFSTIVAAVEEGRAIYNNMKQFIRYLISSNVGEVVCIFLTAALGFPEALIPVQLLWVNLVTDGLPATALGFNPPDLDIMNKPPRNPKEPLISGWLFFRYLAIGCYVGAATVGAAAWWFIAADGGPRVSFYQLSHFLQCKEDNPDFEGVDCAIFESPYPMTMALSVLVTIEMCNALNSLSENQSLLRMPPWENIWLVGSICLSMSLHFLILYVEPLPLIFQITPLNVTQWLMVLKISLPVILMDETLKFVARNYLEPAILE

Key:
[1] = biological target: ryanodine receptor 1 (RyR1), mouse C2C12 myotubes (mouse (endogenous in C2C12)) (UniProt E9PZQ0); test: co-IP; RyR1 immunoprecipitated with anti-RyR1 antibody 5029 and protein A Sepharose from 250 ug homogenate of C2C12 myotubes (CTRL, S-MICT, S-SIT; without or with 10 uM S107 for 3 h); modified RIPA buffer (50 mM Tris-HCl pH 7.4, 0.9% NaCl, 1% Triton X-100), 4 °C; immunoblot
[2] = biological target: ryanodine receptor 1 (RyR1), human skeletal muscle (human (endogenous in vastus lateralis muscle)) (UniProt P21817); test: co-IP; RyR1 immunoprecipitated with anti-RyR1 antibody 5029 and protein A Sepharose from 250 ug homogenate of human vastus lateralis biopsies (Pre, Post, 24 h post SIT or MICT); modified RIPA buffer (50 mM Tris-HCl pH 7.4, 0.9% NaCl, 1% Triton X-100), 4 °C; immunoblot

binding [1]	binding [2]	Substance
no binding		sarco-endoplasmic Ca2+-ATPase (SERCA), mouse C2C12 myotubes, tested in the RyR1 immunoprecipitate (from UniProt O55143-2 1-998)
binds		calstabin1 (FKBP12), mouse C2C12 myotubes (from UniProt P26883 1-108)
	no binding	sarco-endoplasmic Ca2+-ATPase (SERCA), human skeletal muscle (from UniProt P16615-2 1-997)
	binds	calstabin1 (FKBP12), human skeletal muscle (from UniProt P62942 1-108)
